# Reference: the supplement of paper PMC10032668
# By UniProt entry, the sequences of proteins in these tests, tags left out.
# KPNA1, P52294, UniProt P52294, whole entry: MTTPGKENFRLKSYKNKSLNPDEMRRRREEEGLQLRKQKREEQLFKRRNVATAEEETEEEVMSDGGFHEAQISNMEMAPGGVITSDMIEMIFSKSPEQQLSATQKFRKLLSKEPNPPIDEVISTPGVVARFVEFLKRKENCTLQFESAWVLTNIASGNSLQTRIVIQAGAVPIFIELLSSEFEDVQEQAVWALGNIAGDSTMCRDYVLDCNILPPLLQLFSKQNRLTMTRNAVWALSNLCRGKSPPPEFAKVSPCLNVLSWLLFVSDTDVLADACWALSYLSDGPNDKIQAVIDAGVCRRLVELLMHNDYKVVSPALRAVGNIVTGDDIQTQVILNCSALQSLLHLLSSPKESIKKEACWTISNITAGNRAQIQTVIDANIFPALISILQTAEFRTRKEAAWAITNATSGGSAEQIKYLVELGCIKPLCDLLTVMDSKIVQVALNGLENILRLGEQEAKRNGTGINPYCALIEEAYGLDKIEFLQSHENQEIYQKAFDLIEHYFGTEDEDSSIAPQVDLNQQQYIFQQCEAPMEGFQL
# SRSF1, Q07955, UniProt Q07955, whole entry: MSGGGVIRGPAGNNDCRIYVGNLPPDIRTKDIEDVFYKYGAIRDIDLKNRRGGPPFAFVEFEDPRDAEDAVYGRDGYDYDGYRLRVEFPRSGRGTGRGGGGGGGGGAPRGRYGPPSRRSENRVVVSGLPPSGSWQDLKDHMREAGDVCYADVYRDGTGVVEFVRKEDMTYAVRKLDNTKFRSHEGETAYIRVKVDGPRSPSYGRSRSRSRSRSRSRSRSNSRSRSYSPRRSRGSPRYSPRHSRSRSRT
# SRSF9, Q13242, UniProt Q13242, whole entry: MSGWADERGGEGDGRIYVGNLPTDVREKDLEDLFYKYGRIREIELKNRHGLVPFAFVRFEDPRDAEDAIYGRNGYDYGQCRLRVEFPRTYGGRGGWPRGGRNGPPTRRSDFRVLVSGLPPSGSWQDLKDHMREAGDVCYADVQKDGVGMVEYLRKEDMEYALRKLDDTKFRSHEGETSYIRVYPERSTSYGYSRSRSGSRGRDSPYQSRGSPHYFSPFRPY
# The list shows a part of the results. Only hits are listed; about a third recur on repeated control peptides.
# B1: TMEM131 (peptide)
# chain: MPRQRP
# How the values were obtained:
# Assay in all cases: PRISMA enrichment of interactor (LFQ) in peptide spot vs all other peptide spots (log2 fold change); higher = stronger / more specific binding of the interactor to the peptide
# ACIN1, Q9UKV3 = target: ACIN1, Q9UKV3
# Experimental: (§1)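 PRISMA: 221 full-length sORF-encoded peptides (3-15 aa), plus SOS1/GLUT1 control peptides, were spot-synthesized on cellulose membranes in triplicate. Membranes were incubated with HEK293T lysate, and bound proteins were identified by LC-MS/MS with LFQ. Enrichment is the log2 fold change versus all other peptide spots; only significant interactors are listed (cutoff c=6, x0=2.8).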
# ANP32A, P39687 = target: ANP32A, P39687
# Experimental: as §1
# ANP32B, Q92688 = target: ANP32B, Q92688
# Experimental: as §1
# ANP32E, Q9BTT0 = target: ANP32E, Q9BTT0
# Experimental: as §1
# CALU, O43852 = target: CALU, O43852
# Experimental: as §1
# CCDC47, Q96A33 = target: CCDC47, Q96A33
# Experimental: as §1
# CTTN, Q14247 = target: CTTN, Q14247
# Experimental: as §1
# DDX21, Q9NR30 = target: DDX21, Q9NR30
# Experimental: as §1
# EIF6, P56537 = target: EIF6, P56537
# Experimental: as §1
# GRSF1, Q12849 = target: GRSF1, Q12849
# Experimental: as §1
# HTATSF1, O43719 = target: HTATSF1, O43719
# Experimental: as §1
# KPNA1, P52294 = target: KPNA1, P52294
# Experimental: as §1
# LARP1, Q6PKG0 = target: LARP1, Q6PKG0
# Experimental: as §1
# LTV1, Q96GA3 = target: LTV1, Q96GA3
# Experimental: as §1
# MOV10, Q9HCE1 = target: MOV10, Q9HCE1
# Experimental: as §1
# MRPL1, Q9BYD6 = target: MRPL1, Q9BYD6
# Experimental: as §1
# MRPL9, Q9BYD2 = target: MRPL9, Q9BYD2
# Experimental: as §1
# MRPS2, Q9Y399 = target: MRPS2, Q9Y399
# Experimental: as §1
# MRPS27, Q92552 = target: MRPS27, Q92552
# Experimental: as §1
# MRPS31, Q92665 = target: MRPS31, Q92665
# Experimental: as §1
# MRPS34, P82930 = target: MRPS34, P82930
# Experimental: as §1
# MRPS35, P82673 = target: MRPS35, P82673
# Experimental: as §1
# MRPS9, P82933 = target: MRPS9, P82933
# Experimental: as §1
# NAT10, Q9H0A0 = target: NAT10, Q9H0A0
# Experimental: as §1
# NDUFAB1, O14561 = target: NDUFAB1, O14561
# Experimental: as §1
# NOB1, Q9ULX3 = target: NOB1, Q9ULX3
# Experimental: as §1
# NUP107, P57740 = target: NUP107, P57740
# Experimental: as §1
# PELP1, Q8IZL8 = target: PELP1, Q8IZL8
# Experimental: as §1
# POLR2B, P30876 = target: POLR2B, P30876
# Experimental: as §1
# PTCD3, Q96EY7 = target: PTCD3, Q96EY7
# Experimental: as §1
# RBM10 = target: RBM10
# Experimental: as §1
# RCN2, Q14257 = target: RCN2, Q14257
# Experimental: as §1
# RIOK1, Q9BRS2 = target: RIOK1, Q9BRS2
# Experimental: as §1
# RPS29, P62273 = target: RPS29, P62273
# Experimental: as §1
# SART3, Q15020 = target: SART3, Q15020
# Experimental: as §1
# SH3GL1, Q99961 = target: SH3GL1, Q99961
# Experimental: as §1
# SNX9, Q9Y5X1 = target: SNX9, Q9Y5X1
# Experimental: as §1
# SRSF1, Q07955 = target: SRSF1, Q07955
# Experimental: as §1
# SRSF9, Q13242 = target: SRSF9, Q13242
# Experimental: as §1
# SUPT5H, O00267 = target: SUPT5H, O00267
# Experimental: as §1
# TSR1, Q2NL82 = target: TSR1, Q2NL82
# Experimental: as §1
binder,measurement,setting,value
B1,PRISMA enrichment of interactor (log2),"ACIN1, Q9UKV3",5.1
same,PRISMA enrichment of interactor (log2),"ANP32A, P39687",6.26
same,PRISMA enrichment of interactor (log2),"ANP32B, Q92688",6.16
same,PRISMA enrichment of interactor (log2),"ANP32E, Q9BTT0",7.11
same,PRISMA enrichment of interactor (log2),"CALU, O43852",5.96
same,PRISMA enrichment of interactor (log2),"CCDC47, Q96A33",5.4
same,PRISMA enrichment of interactor (log2),"CTTN, Q14247",5.56
same,PRISMA enrichment of interactor (log2),"DDX21, Q9NR30",5.9
same,PRISMA enrichment of interactor (log2),"EIF6, P56537",5.34
same,PRISMA enrichment of interactor (log2),"GRSF1, Q12849",5.53
same,PRISMA enrichment of interactor (log2),"HTATSF1, O43719",6.11
same,PRISMA enrichment of interactor (log2),"KPNA1, P52294",5.86
same,PRISMA enrichment of interactor (log2),"LARP1, Q6PKG0",6.03
same,PRISMA enrichment of interactor (log2),"LTV1, Q96GA3",4.89
same,PRISMA enrichment of interactor (log2),"MOV10, Q9HCE1",5.6
same,PRISMA enrichment of interactor (log2),"MRPL1, Q9BYD6",4.88
same,PRISMA enrichment of interactor (log2),"MRPL9, Q9BYD2",5.18
same,PRISMA enrichment of interactor (log2),"MRPS2, Q9Y399",4.9
same,PRISMA enrichment of interactor (log2),"MRPS27, Q92552",5.32
same,PRISMA enrichment of interactor (log2),"MRPS31, Q92665",5.88
same,PRISMA enrichment of interactor (log2),"MRPS34, P82930",5.54
same,PRISMA enrichment of interactor (log2),"MRPS35, P82673",5.5
same,PRISMA enrichment of interactor (log2),"MRPS9, P82933",5.78
same,PRISMA enrichment of interactor (log2),"NAT10, Q9H0A0",5.67
same,PRISMA enrichment of interactor (log2),"NDUFAB1, O14561",4.98
same,PRISMA enrichment of interactor (log2),"NOB1, Q9ULX3",4.78
same,PRISMA enrichment of interactor (log2),"NUP107, P57740",4.43
same,PRISMA enrichment of interactor (log2),"PELP1, Q8IZL8",5.61
same,PRISMA enrichment of interactor (log2),"POLR2B, P30876",4.98
same,PRISMA enrichment of interactor (log2),"PTCD3, Q96EY7",6.08
same,PRISMA enrichment of interactor (log2),RBM10,6.92
same,PRISMA enrichment of interactor (log2),"RCN2, Q14257",5.54
same,PRISMA enrichment of interactor (log2),"RIOK1, Q9BRS2",5.8
same,PRISMA enrichment of interactor (log2),"RPS29, P62273",5.32
same,PRISMA enrichment of interactor (log2),"SART3, Q15020",5.3
same,PRISMA enrichment of interactor (log2),"SH3GL1, Q99961",5.16
same,PRISMA enrichment of interactor (log2),"SNX9, Q9Y5X1",5.42
same,PRISMA enrichment of interactor (log2),"SRSF1, Q07955",5.8
same,PRISMA enrichment of interactor (log2),"SRSF9, Q13242",6.47
same,PRISMA enrichment of interactor (log2),"SUPT5H, O00267",5.86
same,PRISMA enrichment of interactor (log2),"TSR1, Q2NL82",5.13

# Copied from the entries so far for reference:
binder,measurement,setting,value
B1,PRISMA enrichment of interactor (log2),"MRPS31, Q92665",5.88
same,PRISMA enrichment of interactor (log2),"MRPS34, P82930",5.54
same,PRISMA enrichment of interactor (log2),"MRPS35, P82673",5.5
